Assay results reported in publication PMC6508782.
No constants are given. Whether binding was seen depends on the method and setting. Some results given as binding are weak or reduced against the parent protein; the word gives no strength.

Target: wild-type Hcf106 (mature, in vitro translated, thylakoid-integrated) (Pisum sativum) (UniProt Q94G16)
Test: native gel or EMSA; [3H]Hcf106 variants integrated into isolated pea thylakoid, solubilised with 2% digitonin at ~1 mg/ml chlorophyll, BN-PAGE, fluorography; read-out: migration in the ~700-kDa cpTatC/Hcf106 receptor complex

B1: wild-type Hcf106 (mature, in vitro translated, thylakoid-integrated) (protein, UniProt Q94G16 87-261)
chain: ASLFGVGAPEALVIGVVALLVFGPKGLAEVARNLGKTLREFQPTIREIQDVSREFKSTLEREIGIDDITNPLQSTYSSNVRNTTPTPSATEITNNSQTAVDPNGKVDESKAYSSEEYLKITEEQLKAVAAQQQEQTSSPKEDEIEQQIQPPANETAATVPPPQKPESESSLPSDL
In the case of B1, the binding is reported as “binds”.
